Measurements as given in PMC5482573.

Biological target: γ-COP (M. musculus, in recombinant coatomer) (M. musculus)
Assay: cryo-EM structure; cryo-electron tomography and subtomogram averaging of the COPI leaf, 9.2 Å; coat assembled in vitro from coatomer (840 nM), Arf1 (2 μM), GTPγS, ARNO and GUVs, 37°C, 50 mM HEPES pH 7.4, 50 mM KOAc, 1 mM MgCl2; both purified

binding: binds
B1: β-COP (M. musculus, in recombinant coatomer) (protein, UniProt Q9JIF7 1-953)
chain: MTAAENVCYTLINVPMDSEPPSEISLKNDLEKGDVKSKTEALKKVIIMILNGEKLPGLLMTIIRFVLPLQDHTIKKLLLVFWEIVPKTTPDGRLLHEMILVCDAYRKDLQHPNEFIRGSTLRFLCKLKEAELLEPLMPAIRACLEHRHSYVRRNAVLAIYTIYRNFEHLIPDAPELIHDFLVNEKDASCKRNAFMMLIHADQDRALDYLSTCIDQVQTFGDILQLVIVELIYKVCHANPSERARFIRCIYNLLQSSSPAVKYEAAGTLVTLSSAPTAIKAAAQCYIDLIIKESDNNVKLIVLDRLVELKEHPAHERVLQDLVMDILRVLSTPDLEVRKKTLQLALDLVSSRNVEELVIVLKKEVIKTNNVSEHEDTDKYRQLLVRTLHSCSVRFPDMAANVIPVLMEFLSDSNEAAAADVLEFVREAIQRFDNLRMLIVEKMLEVFHAIKSVKIYRGALWILGEYCSTKEDIQSVMTEVRRSLGEIPIVESEIKKEAGELKPEEEITVGPVQKLVTEMGTYATQSALSSSRPTKKEEDRPPLRGFLLDGDFFVAASLATTLTKIALRYVALVQEKKKQNSFVAEAMLLMATILHLGKSSLPKKPITDDDVDRISLCLKVLSECSPLMNDIFNKECRQSLSQMLSAKLEEEKLSQKKESEKRNVTVQPDDPISFMQLTAKNEMNCKEDQFQLSLLAAMGNTQRKEAADPLASKLNKVTQLTGFSDPVYAEAYVHVNQYDIVLDVLVVNQTSDTLQNCTLELATLGDLKLVEKPSPLTLAPHDFANIKANVKVASTENGIIFGNIVYDVSGAASDRNCVVLSDIHIDIMDYIQPATCTDAEFRQMWAEFEWENKVTVNTNMTDLNDYLQHILKSTNMKCLTPEKALSGYCGFMAANLYARSIFGEDALANVSIEKPVHQGPDAAVTGHIRIRAKSQGMALSLGDKINLSQKKTSL

Results are given in words; binding and its absence hold for the method and conditions named. A result given as binding can be weak or reduced; the word gives no strength.
